# Assay results reported in the supplement of paper PMC10032668.
# Amino acid sequences for entries named in this document (tags omitted).
# AIFM1, O95831, UniProt O95831, whole entry: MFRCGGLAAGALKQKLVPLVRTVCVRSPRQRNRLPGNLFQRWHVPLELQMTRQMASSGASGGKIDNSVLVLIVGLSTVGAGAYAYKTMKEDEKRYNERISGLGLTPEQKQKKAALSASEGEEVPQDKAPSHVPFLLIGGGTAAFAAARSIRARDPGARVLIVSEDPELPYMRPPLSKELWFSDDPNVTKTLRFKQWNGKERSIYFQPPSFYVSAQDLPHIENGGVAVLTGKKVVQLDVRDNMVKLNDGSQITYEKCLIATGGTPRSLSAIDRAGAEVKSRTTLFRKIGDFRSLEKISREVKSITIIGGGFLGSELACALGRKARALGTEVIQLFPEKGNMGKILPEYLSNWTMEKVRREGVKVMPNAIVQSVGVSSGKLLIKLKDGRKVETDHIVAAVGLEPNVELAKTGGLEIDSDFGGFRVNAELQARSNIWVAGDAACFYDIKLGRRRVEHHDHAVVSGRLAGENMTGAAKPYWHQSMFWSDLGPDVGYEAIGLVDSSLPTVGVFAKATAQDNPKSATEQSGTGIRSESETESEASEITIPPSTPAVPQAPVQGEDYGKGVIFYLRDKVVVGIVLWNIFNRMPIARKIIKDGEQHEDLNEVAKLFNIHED
# CUL4A, Q13619, UniProt Q13619, whole entry: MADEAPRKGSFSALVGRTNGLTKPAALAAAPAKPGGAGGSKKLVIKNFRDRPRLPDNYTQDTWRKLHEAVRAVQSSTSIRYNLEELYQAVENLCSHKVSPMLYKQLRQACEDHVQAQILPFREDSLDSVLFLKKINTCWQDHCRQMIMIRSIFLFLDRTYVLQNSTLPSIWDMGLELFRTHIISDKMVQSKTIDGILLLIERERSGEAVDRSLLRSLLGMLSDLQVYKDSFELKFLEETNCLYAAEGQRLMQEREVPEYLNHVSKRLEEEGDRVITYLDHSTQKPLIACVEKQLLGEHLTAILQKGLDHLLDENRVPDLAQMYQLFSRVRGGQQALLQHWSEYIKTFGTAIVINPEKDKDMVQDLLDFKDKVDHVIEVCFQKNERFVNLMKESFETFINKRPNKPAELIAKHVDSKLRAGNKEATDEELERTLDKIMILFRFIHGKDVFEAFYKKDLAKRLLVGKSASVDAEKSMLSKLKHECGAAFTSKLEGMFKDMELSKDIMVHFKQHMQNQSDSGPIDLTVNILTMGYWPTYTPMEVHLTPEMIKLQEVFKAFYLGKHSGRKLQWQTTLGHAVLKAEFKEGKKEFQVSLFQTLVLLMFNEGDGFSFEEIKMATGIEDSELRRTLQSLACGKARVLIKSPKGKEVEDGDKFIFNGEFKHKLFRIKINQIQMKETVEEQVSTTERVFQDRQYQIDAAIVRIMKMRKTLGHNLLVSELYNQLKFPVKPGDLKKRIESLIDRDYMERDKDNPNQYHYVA
# AK6, Q9Y3D8, UniProt Q9Y3D8, whole entry: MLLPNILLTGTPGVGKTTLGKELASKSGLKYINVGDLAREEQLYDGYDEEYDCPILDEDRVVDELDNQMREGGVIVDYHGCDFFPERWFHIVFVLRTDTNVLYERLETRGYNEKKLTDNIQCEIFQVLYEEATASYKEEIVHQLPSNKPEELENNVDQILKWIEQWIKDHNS
# APEX1, P27695, UniProt P27695, whole entry: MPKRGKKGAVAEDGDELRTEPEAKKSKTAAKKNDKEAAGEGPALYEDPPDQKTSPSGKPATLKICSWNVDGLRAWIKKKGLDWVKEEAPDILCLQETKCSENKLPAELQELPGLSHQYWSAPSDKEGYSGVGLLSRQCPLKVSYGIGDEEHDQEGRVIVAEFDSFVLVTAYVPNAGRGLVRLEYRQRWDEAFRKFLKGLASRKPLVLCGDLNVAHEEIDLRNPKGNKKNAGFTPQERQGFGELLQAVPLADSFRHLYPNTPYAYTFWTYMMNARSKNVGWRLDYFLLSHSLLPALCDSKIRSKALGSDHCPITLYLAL
# CKS2, P33552, UniProt P33552, whole entry: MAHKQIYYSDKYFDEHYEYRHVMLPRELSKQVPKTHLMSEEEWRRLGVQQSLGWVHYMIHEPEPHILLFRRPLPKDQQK
# EIF1, P41567, UniProt P41567, whole entry: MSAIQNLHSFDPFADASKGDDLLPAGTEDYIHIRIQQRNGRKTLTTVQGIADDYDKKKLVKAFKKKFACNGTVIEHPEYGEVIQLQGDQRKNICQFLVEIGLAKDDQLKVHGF
# RAB7A, P51149, UniProt P51149, whole entry: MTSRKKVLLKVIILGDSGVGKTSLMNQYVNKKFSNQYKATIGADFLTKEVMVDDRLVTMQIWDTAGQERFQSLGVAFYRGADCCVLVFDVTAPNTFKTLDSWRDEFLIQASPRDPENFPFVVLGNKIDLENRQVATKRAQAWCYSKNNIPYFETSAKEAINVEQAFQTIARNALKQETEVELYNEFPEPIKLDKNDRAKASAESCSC
# The other results are listed elsewhere or left out. Only hits are listed; about a third recur on repeated control peptides.
# Assays:
# Assay in all cases: PRISMA enrichment of interactor (LFQ) in peptide spot vs all other peptide spots (log2 fold change); higher = stronger / more specific binding of the interactor to the peptide
# [1] = target: AIFM1, O95831
# Experimental: (§1)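 PRISMA: 15-aa overlapping tiles (offset 8 aa) of 60 microproteins, plus SOS1/GLUT1 control peptides, were spot-synthesized on cellulose membranes in triplicate. Membranes were incubated with benzonase-treated HEK293T lysate, and bound proteins were identified by LC-MS/MS with LFQ. Enrichment is the log2 fold change of each protein in one spot versus all other spots. Only interactors passing the significance cutoff are listed.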
# [2] = target: ANP32B, Q92688
# Experimental: as §1
# [3] = target: AP2M1, Q96CW1
# Experimental: as §1
# [4] = target: ATP2B3, Q16720
# Experimental: as §1
# [5] = target: COPS5, Q92905
# Experimental: as §1
# [6] = target: CUL4A, Q13619
# Experimental: as §1
# [7] = target: CWC22, Q9HCG8
# Experimental: as §1
# [8] = target: CWC25, Q9NXE8
# Experimental: as §1
# [9] = target: DCTPP1, Q9H773
# Experimental: as §1
# [10] = target: EIF1AD, Q8N9N8
# Experimental: as §1
# [11] = target: LONP1, P36776
# Experimental: as §1
# [12] = target: MRPL49, Q13405
# Experimental: as §1
# [13] = target: MRPL50, Q8N5N7
# Experimental: as §1
# [14] = target: POLR2E, P19388
# Experimental: as §1
# [15] = target: ZBTB11, O95625
# Experimental: as §1
# [16] = target: AK6, Q9Y3D8
# Experimental: as §1
# [17] = target: ALDH9A1, P49189
# Experimental: as §1
# [18] = target: APEX1, P27695
# Experimental: as §1
# [19] = target: CDC73, Q6P1J9
# Experimental: as §1
# [20] = target: CDK11A, Q9UQ88
# Experimental: as §1
# [21] = target: CKS2, P33552
# Experimental: as §1
# [22] = target: COPE, O14579
# Experimental: as §1
# [23] = target: CSNK2A1, P68400
# Experimental: as §1
# [24] = target: CWC15, Q9P013
# Experimental: as §1
# [25] = target: DNAJB11, Q9UBS4
# Experimental: as §1
# [26] = target: EEF1E1, O43324
# Experimental: as §1
# [27] = target: EIF1, P41567
# Experimental: as §1
# [28] = target: FAM98B, Q52LJ0
# Experimental: as §1
# [29] = target: FLOT2, Q14254
# Experimental: as §1
# [30] = target: GPD1L, Q8N335
# Experimental: as §1
# [31] = target: GTPBP1, O00178
# Experimental: as §1
# [32] = target: KNOP1, Q1ED39
# Experimental: as §1
# [33] = target: MRPS28, Q9Y2Q9
# Experimental: as §1
# [34] = target: PAICS, P22234
# Experimental: as §1
# [35] = target: PDLIM1, O00151
# Experimental: as §1
# [36] = target: PGD, P52209
# Experimental: as §1
# [37] = target: PIGS, Q96S52
# Experimental: as §1
# [38] = target: PSMA5, P28066
# Experimental: as §1
# [39] = target: PSMB5, P28074
# Experimental: as §1
# [40] = target: RAB7A, P51149
# Experimental: as §1
# [41] = target: RRP9, O43818
# Experimental: as §1
# [42] = target: SDF2, Q99470
# Experimental: as §1
# [43] = target: SDF2L1, Q9HCN8
# Experimental: as §1
# [44] = target: SEC16A, O15027
# Experimental: as §1
# [45] = target: SSR1, P43307
# Experimental: as §1
binder,measurement,setting,value
STCSLKIPSARHFSW [PRR34-AS1],PRISMA enrichment of interactor (log2),[1],4.91
same,PRISMA enrichment of interactor (log2),[2],7.16
same,PRISMA enrichment of interactor (log2),[3],4.91
same,PRISMA enrichment of interactor (log2),[4],6.59
same,PRISMA enrichment of interactor (log2),[5],4.88
same,PRISMA enrichment of interactor (log2),[6],4.1
same,PRISMA enrichment of interactor (log2),[7],4.76
same,PRISMA enrichment of interactor (log2),[8],3.96
same,PRISMA enrichment of interactor (log2),[9],3.59
same,PRISMA enrichment of interactor (log2),[10],4.95
same,PRISMA enrichment of interactor (log2),[11],8.37
same,PRISMA enrichment of interactor (log2),[12],4.15
same,PRISMA enrichment of interactor (log2),[13],3.88
same,PRISMA enrichment of interactor (log2),[14],5.05
same,PRISMA enrichment of interactor (log2),[15],8.85
HSWVTLVIHSGGDLT [LINC01128],PRISMA enrichment of interactor (log2),[16],5.02
same,PRISMA enrichment of interactor (log2),[17],5.28
same,PRISMA enrichment of interactor (log2),[18],3.98
same,PRISMA enrichment of interactor (log2),[19],5.05
same,PRISMA enrichment of interactor (log2),[20],9.8
same,PRISMA enrichment of interactor (log2),[21],4.88
same,PRISMA enrichment of interactor (log2),[22],5.83
same,PRISMA enrichment of interactor (log2),[23],5.55
same,PRISMA enrichment of interactor (log2),[24],4.5
same,PRISMA enrichment of interactor (log2),[25],5.31
same,PRISMA enrichment of interactor (log2),[26],5.37
same,PRISMA enrichment of interactor (log2),[27],5.07
same,PRISMA enrichment of interactor (log2),[28],5.53
same,PRISMA enrichment of interactor (log2),[29],8.54
same,PRISMA enrichment of interactor (log2),[30],5.23
same,PRISMA enrichment of interactor (log2),[31],4.14
same,PRISMA enrichment of interactor (log2),[32],5.98
same,PRISMA enrichment of interactor (log2),[33],4.76
same,PRISMA enrichment of interactor (log2),[34],4.82
same,PRISMA enrichment of interactor (log2),[35],5.18
same,PRISMA enrichment of interactor (log2),[36],5.72
same,PRISMA enrichment of interactor (log2),[37],4.23
same,PRISMA enrichment of interactor (log2),[38],4.01
same,PRISMA enrichment of interactor (log2),[39],5.95
same,PRISMA enrichment of interactor (log2),[40],5.68
same,PRISMA enrichment of interactor (log2),[41],6
same,PRISMA enrichment of interactor (log2),[42],4.09
same,PRISMA enrichment of interactor (log2),[43],5.01
same,PRISMA enrichment of interactor (log2),[44],4.64
same,PRISMA enrichment of interactor (log2),[45],4.31

# 2 consecutive records out of the list so far, for reference:
binder,measurement,setting,value
STCSLKIPSARHFSW [PRR34-AS1],PRISMA enrichment of interactor (log2),[14],5.05
same,PRISMA enrichment of interactor (log2),[15],8.85
